The nature of the data set: peptide synthesis. As to conditions: whole synthesis, TFA salt.

Two sequences from patent publication US7601685B2 (Eidgenossische Technische Hochschule Zurich, priority 1998, dated 2009) can be followed below.

End groups of sequences in plain letters are not given here.

Regarding “NQEQVSPLYKNRSVSEIQLMHNLGKHLNSMERVEWLRKKLQDVHNF (Modified parathyroid hormone from Homo sapiens)”, the “final purity (method not given)” value was found to be 95%. As for “NQEQVSPLSVSEIQLMHNLGKHLN SMERVEWLRKKLQDVHNF (NQEQVSPLSVSEIQLMHNLGKHLNSMERVEWLRKKLQDVHNF; Modified parathyroid hormone from Homo sapiens)”, the “final purity (method not given)” value is listed as 95%.
